The test addresses Hevea rubber transferase 1-REF bridging protein (HRBP) fused to CFP (Hevea brasiliensis). As to the kind of experiment: co-IP; N. benthamiana leaves co-infiltrated with pairs of constructs, homogenised after 3 d in 150 mM Tris-HCl pH 7.5, 150 mM NaCl, 1.5% Triton X-100; GFPTrap or RFPTrap beads, 2 h at 4 °C; immunoblot with anti-GFP or anti-RFP; done in both directions. Background: Immunoblotting shows a protein as a band on a membrane.

We go through 2 molecules from paper PMC5853894.

These are yes or no findings as the source states them, for the method shown. In cells and extracts the contact can be indirect. A result given as binding can be weak or reduced; the word gives no strength. Tags and fused reporters may be left off the sequences shown.

B1: cis-prenyltransferase CPT6 fused to mCherry (enzyme, UniProt Q8W3U4 1-284)
chain: MELYNGERPSVFRLLGKYMRKGLYSILTQGPIPTHIAFILDGNGRFAKKHKLPEGGGHKAGFLALLNVLTYCYELGVKYATIYAFSIDNFRRKPHEVQYVMNLMLEKIEGMIMEESIINAYDICVRFVGNLKLLDEPLKTAADKIMRATAKNSKFVLLLAVCYTSTDEIVHAVEESSKDKLKSDEICNDGNGDCVIKIEEMEPYSEIKLVELERNTYINPYPDVLIRTSGETRLSNYLLWQTTNCILYSPHALWPEIGLRHVVWAVINCQRHYSYLEKHKEYLK
For B1, the binding entry is “binds”.

B2: rubber elongation factor (REF) fused to mCherry (protein, UniProt P15252 1-138)
chain: MAEDEDNQQGQGEGLKYLGFVQDAATYAVTTFSNVYLFAKDKSGPLQPGVDIIEGPVKNVAVPLYNRFSYIPNGALKFVDSTVVASVTIIDRSLPPIVKDASIQVVSAIRAAPEAARSLASSLPGQTKILAKVFYGEN
Consider B2, for which the binding result is reported as “no binding”.
